System: 3T3 (normal mouse fibroblast) cell line
Conditions: MTT, 48 h, 1-30 µM
Experimental: In vitro biological activities of CU, coformers and synthesized cocrystals 2–6 were evaluated for their MIL-resistant L. tropica promastigotes and cytotoxicity against […]. Detailed methodologies of the biological assays are provided in the supporting information.
2. Cytotoxicity assay Protocol:
Cy totoxicity o f compounds was evaluated in 96-well flat-bo ttomed micro plates by using the standard MTT (3-[4, 5-dimethylthiazole-2-y l]-2 , 5-d iph eny l-tetrazolium bromide) colorimetric assay. For this purpose, 3T3 (mouse fibroblast) cells were cultured in Dulb ecco’s Modified Eagle Medium, supplemented with 5% of fetal bovine serum (FBS), 100 IU/mL of penicillin and 100 µg / m L of strep tomy cin in 75 cm2 flasks, and kept in 5% CO2 incubator at 37° C.
Exponentially growing cells were harvested, counted with haemocytometer, and diluted with a particular medium. Cell culture with the concentration of 5x10^4 cells/mL was p rep ared and introduced (100 µL/well) into 96-well plates. […]
Subsequently, 100 µL of DMSO was added to each well. The extent of MTT reduction to formazan within cells was calculated by measuring the absorbance at 540 nm, using a micro-plate reader (Spectra Max p lus, Molecular Devices, USA). […] The percent inhibition was calculated by using the fo llo wing formula: […]

With `Cc1cccc(N)n1` [Cocrystal 1d, 2-amino-6-methylpyridine] the “Cytotoxic activity 3T3 cell line (IC50 = µM ± SEM)” value was “Non-cytotoxic”.

— publication PMC10916291, “Cocrystals of a coumarin derivative: an efficient approach towards anti-leishmanial cocrystals against MIL-resistant Leishmania tropica” (IUCrJ, 2024)
